Experiment [1] addresses T1, Nup53, C-terminally Twin-StrepII tagged (S. cerevisiae) (UniProt Q03790).
T1 sequence: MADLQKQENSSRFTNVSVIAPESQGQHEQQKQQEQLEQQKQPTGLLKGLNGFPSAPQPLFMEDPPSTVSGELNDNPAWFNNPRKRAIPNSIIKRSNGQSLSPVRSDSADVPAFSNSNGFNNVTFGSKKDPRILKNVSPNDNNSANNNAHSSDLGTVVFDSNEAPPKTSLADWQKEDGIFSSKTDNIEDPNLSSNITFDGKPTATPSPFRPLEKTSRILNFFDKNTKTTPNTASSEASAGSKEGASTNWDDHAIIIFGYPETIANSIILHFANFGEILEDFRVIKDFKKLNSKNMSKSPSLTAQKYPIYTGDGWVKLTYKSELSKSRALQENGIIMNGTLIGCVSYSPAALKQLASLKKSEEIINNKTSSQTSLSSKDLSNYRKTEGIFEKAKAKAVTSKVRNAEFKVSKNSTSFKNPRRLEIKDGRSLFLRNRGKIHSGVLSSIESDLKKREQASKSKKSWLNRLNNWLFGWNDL
Description: RIP-qPCR. (In general: In qPCR the cycle at which signal appears reflects the starting amount.)

Chains of the proteins cited; added tags and fusions are not shown.
UniProt P07149: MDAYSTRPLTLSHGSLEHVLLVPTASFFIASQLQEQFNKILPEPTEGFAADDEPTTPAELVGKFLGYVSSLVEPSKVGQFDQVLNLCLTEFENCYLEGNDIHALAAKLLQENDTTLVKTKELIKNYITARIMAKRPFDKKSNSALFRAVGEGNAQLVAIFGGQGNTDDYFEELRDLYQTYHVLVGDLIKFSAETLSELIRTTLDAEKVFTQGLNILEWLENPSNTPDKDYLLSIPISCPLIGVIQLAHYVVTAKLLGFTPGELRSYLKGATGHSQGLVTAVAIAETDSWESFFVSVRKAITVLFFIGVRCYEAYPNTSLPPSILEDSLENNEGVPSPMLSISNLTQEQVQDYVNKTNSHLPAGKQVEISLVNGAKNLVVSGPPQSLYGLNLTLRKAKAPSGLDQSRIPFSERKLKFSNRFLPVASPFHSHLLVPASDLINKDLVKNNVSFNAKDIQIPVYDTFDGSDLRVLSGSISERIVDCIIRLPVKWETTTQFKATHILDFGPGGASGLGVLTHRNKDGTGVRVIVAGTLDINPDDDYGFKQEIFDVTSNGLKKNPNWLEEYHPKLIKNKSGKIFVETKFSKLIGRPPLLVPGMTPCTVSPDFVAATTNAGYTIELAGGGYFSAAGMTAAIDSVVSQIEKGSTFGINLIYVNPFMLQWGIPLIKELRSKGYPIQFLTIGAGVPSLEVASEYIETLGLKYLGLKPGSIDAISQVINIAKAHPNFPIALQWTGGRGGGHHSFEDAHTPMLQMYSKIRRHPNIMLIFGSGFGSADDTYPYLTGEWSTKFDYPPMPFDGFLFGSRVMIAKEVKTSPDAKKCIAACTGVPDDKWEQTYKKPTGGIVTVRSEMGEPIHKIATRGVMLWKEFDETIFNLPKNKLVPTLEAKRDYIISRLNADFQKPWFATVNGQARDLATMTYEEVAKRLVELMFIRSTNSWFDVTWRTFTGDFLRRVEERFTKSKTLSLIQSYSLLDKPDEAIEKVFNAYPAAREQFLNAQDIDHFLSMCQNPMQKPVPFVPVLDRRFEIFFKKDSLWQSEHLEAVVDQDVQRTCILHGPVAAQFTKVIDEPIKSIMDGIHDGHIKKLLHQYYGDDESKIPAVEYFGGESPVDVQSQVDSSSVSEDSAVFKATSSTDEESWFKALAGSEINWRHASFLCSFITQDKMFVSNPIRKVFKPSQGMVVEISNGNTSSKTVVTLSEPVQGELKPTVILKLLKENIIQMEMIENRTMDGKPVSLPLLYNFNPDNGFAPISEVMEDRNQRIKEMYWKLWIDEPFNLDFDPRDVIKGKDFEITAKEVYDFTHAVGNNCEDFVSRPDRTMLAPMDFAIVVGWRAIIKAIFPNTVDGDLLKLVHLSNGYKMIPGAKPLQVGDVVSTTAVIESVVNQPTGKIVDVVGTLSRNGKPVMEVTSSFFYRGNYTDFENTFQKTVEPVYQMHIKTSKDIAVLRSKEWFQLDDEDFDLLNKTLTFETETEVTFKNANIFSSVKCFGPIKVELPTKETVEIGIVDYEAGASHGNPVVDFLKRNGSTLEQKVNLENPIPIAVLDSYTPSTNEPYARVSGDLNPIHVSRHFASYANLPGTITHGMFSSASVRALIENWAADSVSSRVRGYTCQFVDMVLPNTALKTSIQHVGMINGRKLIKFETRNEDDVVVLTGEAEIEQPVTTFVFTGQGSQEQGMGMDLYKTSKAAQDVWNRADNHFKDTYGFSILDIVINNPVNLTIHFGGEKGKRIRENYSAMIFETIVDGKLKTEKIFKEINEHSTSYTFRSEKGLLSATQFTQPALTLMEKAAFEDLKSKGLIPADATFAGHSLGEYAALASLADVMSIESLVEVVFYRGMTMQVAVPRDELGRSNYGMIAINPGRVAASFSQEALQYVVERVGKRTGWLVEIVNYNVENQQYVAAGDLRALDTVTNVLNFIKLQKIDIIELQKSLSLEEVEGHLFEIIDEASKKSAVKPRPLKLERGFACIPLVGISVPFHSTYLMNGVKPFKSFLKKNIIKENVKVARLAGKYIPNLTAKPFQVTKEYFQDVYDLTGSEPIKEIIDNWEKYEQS
UniProt P38181: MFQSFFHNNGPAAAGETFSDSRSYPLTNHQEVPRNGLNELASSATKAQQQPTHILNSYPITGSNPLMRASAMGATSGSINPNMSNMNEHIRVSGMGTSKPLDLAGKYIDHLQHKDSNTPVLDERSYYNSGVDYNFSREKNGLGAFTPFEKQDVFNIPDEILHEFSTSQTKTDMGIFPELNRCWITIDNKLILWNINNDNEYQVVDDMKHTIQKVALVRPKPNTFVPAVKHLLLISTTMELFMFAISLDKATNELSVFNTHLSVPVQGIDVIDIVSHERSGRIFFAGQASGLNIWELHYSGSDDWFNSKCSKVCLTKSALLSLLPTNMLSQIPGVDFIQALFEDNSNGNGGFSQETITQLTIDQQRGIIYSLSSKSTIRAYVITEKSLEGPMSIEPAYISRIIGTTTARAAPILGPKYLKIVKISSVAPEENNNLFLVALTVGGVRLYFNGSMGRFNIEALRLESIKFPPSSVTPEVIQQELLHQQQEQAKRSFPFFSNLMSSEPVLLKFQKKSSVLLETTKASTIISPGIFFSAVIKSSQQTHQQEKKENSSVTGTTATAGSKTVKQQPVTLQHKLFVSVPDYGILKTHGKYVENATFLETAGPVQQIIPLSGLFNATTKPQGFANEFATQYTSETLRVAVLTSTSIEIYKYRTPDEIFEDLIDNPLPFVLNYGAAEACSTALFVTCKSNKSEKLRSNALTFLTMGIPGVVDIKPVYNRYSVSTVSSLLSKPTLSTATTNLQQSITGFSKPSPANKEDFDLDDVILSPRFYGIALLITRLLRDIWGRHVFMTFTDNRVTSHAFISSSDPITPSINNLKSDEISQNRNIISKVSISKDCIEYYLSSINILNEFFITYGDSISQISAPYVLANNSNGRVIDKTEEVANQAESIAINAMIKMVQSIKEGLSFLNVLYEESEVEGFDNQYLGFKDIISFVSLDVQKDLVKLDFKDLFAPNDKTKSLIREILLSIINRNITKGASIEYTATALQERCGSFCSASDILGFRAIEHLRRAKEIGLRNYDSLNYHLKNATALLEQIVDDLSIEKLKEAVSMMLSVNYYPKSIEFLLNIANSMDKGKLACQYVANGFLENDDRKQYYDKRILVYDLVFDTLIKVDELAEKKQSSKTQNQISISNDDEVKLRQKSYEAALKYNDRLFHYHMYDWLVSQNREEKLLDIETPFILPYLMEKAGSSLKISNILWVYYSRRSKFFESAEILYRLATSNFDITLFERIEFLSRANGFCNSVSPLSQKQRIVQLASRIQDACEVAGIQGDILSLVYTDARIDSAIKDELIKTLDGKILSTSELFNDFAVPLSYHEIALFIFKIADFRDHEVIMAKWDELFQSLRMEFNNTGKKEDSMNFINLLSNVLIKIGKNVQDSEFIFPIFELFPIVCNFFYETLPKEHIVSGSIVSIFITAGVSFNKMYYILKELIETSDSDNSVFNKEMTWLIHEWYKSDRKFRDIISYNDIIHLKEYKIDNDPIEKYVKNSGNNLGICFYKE
UniProt P19097: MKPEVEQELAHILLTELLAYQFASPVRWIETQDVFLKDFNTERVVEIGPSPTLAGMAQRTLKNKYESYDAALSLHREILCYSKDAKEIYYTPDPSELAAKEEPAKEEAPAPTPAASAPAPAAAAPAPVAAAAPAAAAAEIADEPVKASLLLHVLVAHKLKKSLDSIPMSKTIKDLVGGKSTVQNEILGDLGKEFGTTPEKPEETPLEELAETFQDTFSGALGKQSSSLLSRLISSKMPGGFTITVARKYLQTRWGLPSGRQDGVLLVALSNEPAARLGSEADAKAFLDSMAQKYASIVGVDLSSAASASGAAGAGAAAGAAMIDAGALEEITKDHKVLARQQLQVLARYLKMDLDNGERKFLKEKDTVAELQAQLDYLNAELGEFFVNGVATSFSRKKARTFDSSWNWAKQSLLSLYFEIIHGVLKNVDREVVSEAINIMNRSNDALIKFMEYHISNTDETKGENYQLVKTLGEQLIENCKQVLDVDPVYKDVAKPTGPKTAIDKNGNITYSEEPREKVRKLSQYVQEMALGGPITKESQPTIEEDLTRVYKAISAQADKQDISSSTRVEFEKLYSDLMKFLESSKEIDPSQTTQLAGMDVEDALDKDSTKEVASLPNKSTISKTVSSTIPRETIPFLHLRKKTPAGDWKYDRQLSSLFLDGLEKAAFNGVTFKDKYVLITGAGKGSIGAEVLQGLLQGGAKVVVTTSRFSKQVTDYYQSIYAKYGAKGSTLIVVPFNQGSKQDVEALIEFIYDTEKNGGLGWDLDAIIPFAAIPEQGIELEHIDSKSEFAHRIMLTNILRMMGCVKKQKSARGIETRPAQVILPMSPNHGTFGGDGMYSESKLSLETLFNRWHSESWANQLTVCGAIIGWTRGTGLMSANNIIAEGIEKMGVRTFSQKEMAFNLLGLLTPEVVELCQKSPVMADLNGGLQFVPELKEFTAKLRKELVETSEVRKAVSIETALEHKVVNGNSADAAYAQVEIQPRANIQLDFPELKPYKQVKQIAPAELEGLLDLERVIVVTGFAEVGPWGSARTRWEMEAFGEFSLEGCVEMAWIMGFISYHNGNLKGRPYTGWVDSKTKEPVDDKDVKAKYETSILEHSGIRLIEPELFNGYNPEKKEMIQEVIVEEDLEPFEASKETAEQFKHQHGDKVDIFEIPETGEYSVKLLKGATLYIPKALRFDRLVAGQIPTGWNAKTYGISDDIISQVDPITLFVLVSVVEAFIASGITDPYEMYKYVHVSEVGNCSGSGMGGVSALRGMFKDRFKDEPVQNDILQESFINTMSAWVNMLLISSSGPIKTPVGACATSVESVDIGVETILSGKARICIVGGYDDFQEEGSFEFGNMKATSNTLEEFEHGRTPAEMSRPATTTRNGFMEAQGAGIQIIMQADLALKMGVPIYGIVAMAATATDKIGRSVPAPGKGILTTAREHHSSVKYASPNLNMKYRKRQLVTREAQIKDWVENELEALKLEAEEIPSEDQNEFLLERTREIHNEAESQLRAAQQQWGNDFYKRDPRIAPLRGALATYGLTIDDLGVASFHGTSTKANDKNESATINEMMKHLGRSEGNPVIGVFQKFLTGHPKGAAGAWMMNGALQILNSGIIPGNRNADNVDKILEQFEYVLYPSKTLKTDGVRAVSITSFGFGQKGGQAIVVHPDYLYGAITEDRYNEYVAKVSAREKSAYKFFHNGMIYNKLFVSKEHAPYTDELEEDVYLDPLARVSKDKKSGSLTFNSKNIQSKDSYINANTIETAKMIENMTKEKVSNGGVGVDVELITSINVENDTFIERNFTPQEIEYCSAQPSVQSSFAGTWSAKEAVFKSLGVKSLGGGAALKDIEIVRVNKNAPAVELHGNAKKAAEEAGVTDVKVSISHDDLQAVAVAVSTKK
UniProt P40368: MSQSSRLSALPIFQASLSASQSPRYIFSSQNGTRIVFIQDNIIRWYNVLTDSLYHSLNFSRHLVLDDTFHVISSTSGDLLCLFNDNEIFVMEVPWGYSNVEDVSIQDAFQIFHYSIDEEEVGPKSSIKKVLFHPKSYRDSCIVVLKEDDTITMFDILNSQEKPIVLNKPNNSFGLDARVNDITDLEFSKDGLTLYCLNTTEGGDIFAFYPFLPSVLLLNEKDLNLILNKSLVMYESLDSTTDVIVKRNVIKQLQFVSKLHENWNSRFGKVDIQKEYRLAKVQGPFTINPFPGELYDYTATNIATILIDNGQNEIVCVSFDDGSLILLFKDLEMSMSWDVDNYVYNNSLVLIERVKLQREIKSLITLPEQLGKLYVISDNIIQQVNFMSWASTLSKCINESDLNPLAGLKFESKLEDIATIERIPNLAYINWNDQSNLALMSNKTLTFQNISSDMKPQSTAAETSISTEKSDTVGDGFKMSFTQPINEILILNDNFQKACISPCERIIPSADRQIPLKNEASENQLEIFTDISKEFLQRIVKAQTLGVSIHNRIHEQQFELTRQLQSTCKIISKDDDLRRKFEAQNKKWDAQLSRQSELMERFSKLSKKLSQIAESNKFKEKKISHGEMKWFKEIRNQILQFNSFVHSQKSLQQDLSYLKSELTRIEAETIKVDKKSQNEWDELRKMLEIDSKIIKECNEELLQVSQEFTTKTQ

The target of experiment [2] is Fas1, C-terminally Twin-StrepII tagged (S. cerevisiae) (UniProt P07149). The experiment in a line: selective ribosome profiling.
Experiment [3] shares this target. The experiment in a line: RIP-qPCR.
For experiment [4], the target named is T2, Gle2, C-terminally Twin-StrepII tagged (S. cerevisiae) (UniProt P40066).
T2 sequence: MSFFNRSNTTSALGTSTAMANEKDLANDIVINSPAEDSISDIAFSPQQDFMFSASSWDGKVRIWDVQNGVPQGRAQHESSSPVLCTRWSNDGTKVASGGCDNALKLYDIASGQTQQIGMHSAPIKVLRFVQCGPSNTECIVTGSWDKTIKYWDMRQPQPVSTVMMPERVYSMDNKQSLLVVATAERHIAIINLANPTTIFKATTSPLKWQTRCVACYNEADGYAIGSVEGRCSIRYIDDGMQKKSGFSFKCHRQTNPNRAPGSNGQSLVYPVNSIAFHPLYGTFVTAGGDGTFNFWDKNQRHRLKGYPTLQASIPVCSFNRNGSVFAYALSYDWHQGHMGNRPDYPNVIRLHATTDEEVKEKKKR
The experiment in a line: RIP-qPCR.

Experiment [5] addresses Nup157, C-terminally Twin-StrepII tagged (S. cerevisiae) (UniProt P40064). Description: RIP-qPCR.
The target of experiment [6] is Nup116, C-terminally Twin-StrepII tagged (S. cerevisiae) (UniProt Q02630). Description: RIP-qPCR.

These are yes or no findings as the source states them, for the method shown. Some binding calls cover weakened binding; strength is not graded here. For part of these data: Sequences can lack the tags named with a protein.

For the substance Nup170 (from UniProt P38181 1-1502), the binding entry in experiment [1] is reported as “binds”.

On to Fas2 (from UniProt P19097 1-1887), for which the binding result in experiment [2] and in experiment [3] was “binds” throughout.

As to Nup116 (from UniProt Q02630 1-1113), in experiment [4], the binding entry is on record as “binds”.

Consider Nup145N (from UniProt P49687 1-605), for which the binding entry in experiment [5] is “binds weakly”.

Regarding Nup82 (from UniProt P40368 1-713), in experiment [6], the binding entry is “binds”.

The record behind these values is publication doi:10.1101/2021.07.13.452229.
